PubChem BioAssay AID1259254 | NCATS – 2017
In all, the deposit lists about 59,000 reagents; shown is an unselected part. Over the whole deposit, about 1,550 (2.6%) are marked active. 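G2 share is only a proxy for re-replication; each gene was hit by three separate siRNAs, and active genes were retested.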 Reagents against one gene are numbered here. Further read-outs or replicates are left out here. Not given: the amount of reagent.

Purpose: 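Gene knock-downs that lead to re-replication, shown by excess G2 DNA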 (primary screen)
Cells: human HCT116 colorectal cancer cells
Reagents: single siRNA against human genes
Timing: 3 days
Detection: 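Nuclei stained with Hoechst and imaged; cell-cycle phase assigned by DNA content; G2 share scaled per plate, non-targeting siRNA 0%, GMNN siRNA 100%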
Reading the numbers: G2 robust z-score: higher = more G2 cells, more excess DNA replication
Rule for the call: 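Active siRNAs have a G2 robust z of 5 or more median absolute deviations over the median, which in these data means about 38% or higher of GMNN control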

Silencing of CATSPER1 (cation channel sperm associated 1) #1 gave: G2 robust z-score 2.9; inactive.
For CATSPER1 (cation channel sperm associated 1) #2 the deposit lists G2 robust z-score 0.0547; inactive.
CATSPER1 (cation channel sperm associated 1) #3 gave G2 robust z-score -0.486; inactive.
Against SCRT2 (scratch family transcriptional repressor 2) #1 the deposit lists G2 robust z-score -1.28; inactive.
For SCRT2 (scratch family transcriptional repressor 2) #2 the deposit lists G2 robust z-score -0.0875; inactive.
With knock-down of SCRT2 (scratch family transcriptional repressor 2) #3, the record shows G2 robust z-score 1.3; inactive.

Looked up above.
CATSPER1 (cation channel sperm associated 1) #2, activity call: inactive
Result of SCRT2 (scratch family transcriptional repressor 2) #3 in “G2 robust z-score”: 1.3

The listing continues:
With knock-down of PIDD1 (p53-induced death domain protein 1) #1 the results were G2 robust z-score 1.87; inactive.
PIDD1 (p53-induced death domain protein 1) #2 gave G2 robust z-score 0.187; inactive.
With knock-down of PIDD1 (p53-induced death domain protein 1) #3 the results were G2 robust z-score -0.00339; inactive.
Against OSBPL5 (oxysterol binding protein like 5) #1, the values are G2 robust z-score -0.415; inactive.
Depletion of OSBPL5 (oxysterol binding protein like 5) #2 gave: G2 robust z-score -0.748; inactive.
Against OSBPL5 (oxysterol binding protein like 5) #3, the entry reads G2 robust z-score -0.621; inactive.
With knock-down of RPL37P23 (ribosomal protein L37 pseudogene 23) #1, the record shows G2 robust z-score 0.944; inactive.
After knock-down of RPL37P23 (ribosomal protein L37 pseudogene 23) #2, the screen gave G2 robust z-score 0.0829; inactive.
After knock-down of RPL37P23 (ribosomal protein L37 pseudogene 23) #3, the record shows G2 robust z-score 0.229; inactive.
For S100A2 (S100 calcium binding protein A2) #1, the entry reads G2 robust z-score -0.0292; inactive.
S100A2 (S100 calcium binding protein A2) #2 showed G2 robust z-score 0.618; inactive.
With knock-down of S100A2 (S100 calcium binding protein A2) #3, the screen gave G2 robust z-score 4.7; inactive.
